{"sequences": {"note": "Amino acid sequences for entries named in this document (tags omitted).", "UniProt Q0JBA9, entry or part of it": "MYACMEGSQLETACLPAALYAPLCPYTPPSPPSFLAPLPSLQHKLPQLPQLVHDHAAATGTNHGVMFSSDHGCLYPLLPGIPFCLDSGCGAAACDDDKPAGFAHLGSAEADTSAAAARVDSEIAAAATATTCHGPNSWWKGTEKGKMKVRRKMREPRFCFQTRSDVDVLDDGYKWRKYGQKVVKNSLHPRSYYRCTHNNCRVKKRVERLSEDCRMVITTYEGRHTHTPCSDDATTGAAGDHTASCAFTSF"}, "source": "paper PMC7819943", "about": "“Rice protein-binding microarrays: a tool to detect cis-acting elements near promoter regions in rice”", "note": "This is one part of the list.", "data": [{"target": "OsWRKY34 (Oryza sativa, UniProt Q0JBA9 1-250)", "test": "protein-binding microarray (RPBM); PBS, 2% BSA, 51.3 ng/ul salmon testes DNA, 50 uM zinc acetate, 200 nM TF, 25 C, 1 h; high values mean tight binding", "conditions": "protein: recombinant; tags: N-terminal polyhistidine and DsRed monomer fusion (pET32a); label: CyDye5-dUTP incorporated in the synthesized complementary strand; 3' TTTTT single-stranded linker to array surface; dsDNA, one strand shown", "how_it_was_run": "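Transcription factors were each fused at the N-terminus to a polyhistidine tag plus DsRed and expressed in E. coli BL21-CodonPlus before Ni–NTA purification. Binding to a double-stranded custom Agilent array was carried out with 200 nM protein at 25 °C for 1 h in PBS, 2% BSA, salmon testes DNA and 50 µM zinc acetate. The binding signal is per-feature fluorescence intensity, in arbitrary units, on an Axon 4000B scanner.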", "values": [{"sequence": "GTGCTCTGCCTGACGAACTTTTGCACCATGTCATGACATTCGGAGTCACCTAGTGCAG", "binding signal": "9840 fluorescence intensity (a.u.)"}, {"sequence": "TAGCCTCATGTAAGTGCGCATCATATTTGTATTATTTTTCCGGAGTCACCTAGTGCAG", "binding signal": "8530 fluorescence intensity (a.u.)"}, {"sequence": "CTTTGGTTTTATCTTCACTCCAGTCAATGACACCTCTACCCGGAGTCACCTAGTGCAG", "binding signal": "12500 fluorescence intensity (a.u.)"}, {"sequence": "TTTTTTTCGCATCCGCTTTTTTCCGCCGTAACAGATGGACCGGAGTCACCTAGTGCAG", "binding signal": "12900 fluorescence intensity (a.u.)"}, {"sequence": "TCGACGGCATCATGGAGTGCGCCGCTTTCTCGTCCTCTACCGGAGTCACCTAGTGCAG", "binding signal": "8950 fluorescence intensity (a.u.)"}, {"sequence": "GGACCTCAACCTTTCCTGACCTATCCTCTTTTCCCACTCACGGAGTCACCTAGTGCAG", "binding signal": "10800 fluorescence intensity (a.u.)"}, {"sequence": "TAGCTTTCGTTGAGTTGACTTATTATTAGTCATTCCAATTCGGAGTCACCTAGTGCAG", "binding signal": "12700 fluorescence intensity (a.u.)"}, {"sequence": "GTAGTTTTGACTTTTTTTTAAGTCAAACTTCTTCAGATTTCGGAGTCACCTAGTGCAG", "binding signal": "10700 fluorescence intensity (a.u.)"}, {"sequence": "TTTGGTTGCTTGCCTTCTTTATCGGCAAAATTTGCTATAGCGGAGTCACCTAGTGCAG", "binding signal": "8970 fluorescence intensity (a.u.)"}, {"sequence": "ACTCCGCTCAGCTCTAGCTTCCCCACCACCACCACCACCCCGGAGTCACCTAGTGCAG", "binding signal": "10700 fluorescence intensity (a.u.)"}, {"sequence": "CCATTGTGTCATTCAGTTATTGTTACTTTCAGTTGTTCTACGGAGTCACCTAGTGCAG", "binding signal": "12200 fluorescence intensity (a.u.)"}, {"sequence": "CGGTATTGGATTGATCAATCATCGTCACCTCGTTTTGCTTCGGAGTCACCTAGTGCAG", "binding signal": "8680 fluorescence intensity (a.u.)"}, {"sequence": "CACACTATATTCCTGGTCCATTTTTCGACGAAAATCTACACGGAGTCACCTAGTGCAG", "binding signal": "9140 fluorescence intensity (a.u.)"}, {"sequence": "TTTTAGTCTTAATTATAGCTTTTCTTTTTACTTGCATATACGGAGTCACCTAGTGCAG", "binding signal": "9120 fluorescence intensity (a.u.)"}, {"sequence": "CGTTTTCATCACTGGATGCGTGTCTACATCCACGGTTTTTCGGAGTCACCTAGTGCAG", "binding signal": "13100 fluorescence intensity (a.u.)"}, {"sequence": "CGCCGAGCATCTTCGACGTCGTCTCCTCCATCACGCCGATCGGAGTCACCTAGTGCAG", "binding signal": "8240 fluorescence intensity (a.u.)"}, {"sequence": "GCCAAGCCACCCACCCACGCCCCGACGCCATTAATTTCCCCGGAGTCACCTAGTGCAG", "binding signal": "9070 fluorescence intensity (a.u.)"}, {"sequence": "TTGCCGCGGGTTTGCTCCAAAATTTTGTGTTCGTACGCTTCGGAGTCACCTAGTGCAG", "binding signal": "13600 fluorescence intensity (a.u.)"}, {"sequence": "TTTGGTTTACAGTCTACATTTGCTCAACATCCATCTTTCTCGGAGTCACCTAGTGCAG", "binding signal": "9600 fluorescence intensity (a.u.)"}, {"sequence": "TTGCAGTGTTGATCGAGTCGTGGGAGTGCGTGGTGTGCGTCGGAGTCACCTAGTGCAG", "binding signal": "8800 fluorescence intensity (a.u.)"}, {"sequence": "TATATATATATATATATATATATATATATATAAGGTTTGACGGAGTCACCTAGTGCAG", "binding signal": "17300 fluorescence intensity (a.u.)"}, {"sequence": "CATCGTTTTACGTGAAACACTTTTAGTTTGCATTCATCTTCGGAGTCACCTAGTGCAG", "binding signal": "9600 fluorescence intensity (a.u.)"}, {"sequence": "TGTAGTGTTACATCACATATTAATACATCTTCTTAATTTTCGGAGTCACCTAGTGCAG", "binding signal": "8570 fluorescence intensity (a.u.)"}, {"sequence": "AATCGAATTAATTACTGCTCCGGTCAAACTTAAGCACGCACGGAGTCACCTAGTGCAG", "binding signal": "8420 fluorescence intensity (a.u.)"}, {"sequence": "ATAAAGCAGTGATGAATATTCAGAGTTTTTTGCCCTCTAACGGAGTCACCTAGTGCAG", "binding signal": "8170 fluorescence intensity (a.u.)"}, {"sequence": "AATTACACTACGATTATATTATAATTACATTTGTCAAATTCGGAGTCACCTAGTGCAG", "binding signal": "9220 fluorescence intensity (a.u.)"}, {"sequence": "GTAGCTCACTTTTTTCTCTCGCTCCTTCACCTAAGCACAACGGAGTCACCTAGTGCAG", "binding signal": "12600 fluorescence intensity (a.u.)"}, {"sequence": "GGCCTCGTCTACCCATCCGGCCCAGTCAATGTCGCAGGGGCGGAGTCACCTAGTGCAG", "binding signal": "10100 fluorescence intensity (a.u.)"}, {"sequence": "GCTCGGTGCAGCTAGGTGTGTCTTGGTTGGTGATCCACAACGGAGTCACCTAGTGCAG", "binding signal": "8290 fluorescence intensity (a.u.)"}, {"sequence": "TGCCCAATTGCTCACCGAAACAGCAGCAGTCACAACCTGTCGGAGTCACCTAGTGCAG", "binding signal": "8360 fluorescence intensity (a.u.)"}, {"sequence": "ATAAGCATCAAACTTTACAGTTCTTTGTTGTATCATGTATCGGAGTCACCTAGTGCAG", "binding signal": "9060 fluorescence intensity (a.u.)"}, {"sequence": "TGTATAGTTTGTTCAGTCCCTACTATTAGTTCTTCTTGGACGGAGTCACCTAGTGCAG", "binding signal": "8490 fluorescence intensity (a.u.)"}, {"sequence": "TTCCAACCCCACATTTCATCCTCGATCTTTCTGGTTTGCCCGGAGTCACCTAGTGCAG", "binding signal": "8700 fluorescence intensity (a.u.)"}, {"sequence": "ATCGGCTTTCACCCTTACACCGTTACACGTTGCACTGCACCGGAGTCACCTAGTGCAG", "binding signal": "8192 fluorescence intensity (a.u.)"}, {"sequence": "ACGTATTTTGTTCATTATATAGTTTTGTTTTCAGTTTTTCCGGAGTCACCTAGTGCAG", "binding signal": "14400 fluorescence intensity (a.u.)"}, {"sequence": "CATTTCATCATCCGGAAGCAAATCTGTGGCGATAACCTGTCGGAGTCACCTAGTGCAG", "binding signal": "8080 fluorescence intensity (a.u.)"}, {"sequence": "TGGGTTGCTGCATTGTTGATATTTTAACTACTTTATAAACCGGAGTCACCTAGTGCAG", "binding signal": "8490 fluorescence intensity (a.u.)"}, {"sequence": "TCCTCTCATCCTATTTTCTGTGTGCATTGTGTCTGTGACACGGAGTCACCTAGTGCAG", "binding signal": "9240 fluorescence intensity (a.u.)"}, {"sequence": "AGCCAGCAGCCTCATCATCGACAGCTGACCACCGTTTTGCCGGAGTCACCTAGTGCAG", "binding signal": "8310 fluorescence intensity (a.u.)"}, {"sequence": "GTTATAATATTTGTCAAACAGAGGTCCAGTATTTTGCATCCGGAGTCACCTAGTGCAG", "binding signal": "8060 fluorescence intensity (a.u.)"}, {"sequence": "CCACATAATTCACATAATATTTCTATATTTATTCATCATTCGGAGTCACCTAGTGCAG", "binding signal": "9250 fluorescence intensity (a.u.)"}, {"sequence": "TGGCATGGTTCCAATTTCGTGAATAGTAATGGTATATCTCCGGAGTCACCTAGTGCAG", "binding signal": "8290 fluorescence intensity (a.u.)"}]}]}
